Library screen at single concentrations

Amino acid sequences for entries named in this document (tags omitted). Residues count along the entry.
UniProt Q4DA54, 1-478: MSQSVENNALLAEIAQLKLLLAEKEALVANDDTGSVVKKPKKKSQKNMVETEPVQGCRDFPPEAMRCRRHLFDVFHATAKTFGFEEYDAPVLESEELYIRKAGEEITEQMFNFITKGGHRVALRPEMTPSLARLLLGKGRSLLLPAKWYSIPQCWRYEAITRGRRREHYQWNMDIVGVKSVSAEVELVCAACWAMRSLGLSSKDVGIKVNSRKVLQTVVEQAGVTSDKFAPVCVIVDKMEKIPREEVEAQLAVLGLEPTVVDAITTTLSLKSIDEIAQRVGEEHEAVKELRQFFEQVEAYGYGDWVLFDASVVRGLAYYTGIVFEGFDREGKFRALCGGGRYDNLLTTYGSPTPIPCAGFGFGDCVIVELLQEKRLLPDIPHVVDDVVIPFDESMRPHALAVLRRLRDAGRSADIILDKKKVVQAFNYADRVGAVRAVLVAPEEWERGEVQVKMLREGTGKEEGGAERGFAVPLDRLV
UniProt A4I591, 1-473: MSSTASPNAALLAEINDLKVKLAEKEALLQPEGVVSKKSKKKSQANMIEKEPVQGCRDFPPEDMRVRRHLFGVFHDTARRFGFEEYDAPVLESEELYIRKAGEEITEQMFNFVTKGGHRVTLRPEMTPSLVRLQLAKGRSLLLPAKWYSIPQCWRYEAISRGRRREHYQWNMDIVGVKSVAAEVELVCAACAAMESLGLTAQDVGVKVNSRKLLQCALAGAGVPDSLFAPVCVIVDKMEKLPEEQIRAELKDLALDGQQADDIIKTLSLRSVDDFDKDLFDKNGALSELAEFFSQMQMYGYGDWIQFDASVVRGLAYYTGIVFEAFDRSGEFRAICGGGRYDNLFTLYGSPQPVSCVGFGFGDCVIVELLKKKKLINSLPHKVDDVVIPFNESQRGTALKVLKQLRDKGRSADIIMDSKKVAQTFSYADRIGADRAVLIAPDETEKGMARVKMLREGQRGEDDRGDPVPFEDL
UniProt P9WPC5, whole entry: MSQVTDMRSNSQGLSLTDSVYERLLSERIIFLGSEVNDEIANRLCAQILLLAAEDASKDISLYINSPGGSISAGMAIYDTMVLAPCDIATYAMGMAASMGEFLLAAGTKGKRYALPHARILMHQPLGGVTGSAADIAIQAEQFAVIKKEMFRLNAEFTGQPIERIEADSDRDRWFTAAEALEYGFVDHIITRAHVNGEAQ
UniProt P9WPC3, whole entry partner: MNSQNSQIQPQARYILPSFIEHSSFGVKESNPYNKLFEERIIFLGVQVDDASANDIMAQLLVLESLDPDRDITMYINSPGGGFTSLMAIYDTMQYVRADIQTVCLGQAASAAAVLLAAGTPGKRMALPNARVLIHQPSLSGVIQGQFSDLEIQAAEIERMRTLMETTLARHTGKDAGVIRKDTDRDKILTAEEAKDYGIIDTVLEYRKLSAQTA

Source: ChEMBL document CHEMBL3988442, “University of Dundee, Small-Polar-MMV Screening Library” (2021).

A: 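Assay of Toxoplasma gondii numbers, read through their beta-galactosidase reporter with a colour substrate. Concentration: 10 µM. Higher reads as fewer parasites (inferred from which compounds were picked for retests). About 67,000 compounds were tested under these conditions; 0.38% (about 260) showed 50% or more at least once.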
B: 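Cell assay of Leishmania donovani living inside macrophages; the read-out is not stated. Compounds at 30 µM. Direction is inferred from retests: higher values go with stronger inhibition. Size under these conditions: about 69,000 compounds, about 1,000 of them at 50% or above in at least one test.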
C: 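Histidine-tRNA ligase, Trypanosoma cruzi CL Brener (UniProt Q4DA54). Enzyme assay of histidyl-tRNA synthetase; the read-out is not stated. Concentration: 30 µM. The record gives no direction; compounds that gave an IC50 in retests scored well above the rest, so higher reads as stronger inhibition. Of about 69,000 compounds tested this way, about 31 (0.045%) reached 50% or more in at least one test.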
D: 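Enzyme assay of histidyl-tRNA synthetase; the read-out is not stated. Target: Histidine-tRNA ligase, Leishmania infantum (UniProt A4I591). Tested at 30 µM. Direction is inferred from retests: higher values go with stronger inhibition. The assay is labelled LdHisRS but filed under L. infantum. About 69,000 compounds were tested under these conditions; 0.6% (about 410) showed 50% or more at least once.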
E: 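ClpP1P2, Mycobacterium tuberculosis (UniProt P9WPC5 and UniProt P9WPC3). Protease assay of ClpP1P2, read by the AMC dye that it sets free. Tested at 50 µM. Direction is inferred from only a few compounds that gave an IC50; most scored high, so higher reads as stronger inhibition. Most other retested compounds had strongly negative values. About 69,000 compounds were tested under these conditions; 0.015% (about 10) showed 50% or more at least once.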
F: 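Whole-parasite assay of Trypanosoma brucei over 72 hours; the read-out is not stated. Compounds at 30 µM. Higher reads as stronger inhibition (inferred: compounds with an IC50 in retests scored well above the rest). Values scatter widely below zero; nearly all retest evidence comes from the higher of the two concentrations used. Size under these conditions: about 64,000 compounds, about 940 of them at 50% or above in at least one test.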

Each number is a percent effect as filed.
How 0% and 100% were set is not recorded. Most values in the screen are low, and negative values occur.
Compounds were drawn at random from those tested, without regard to their results.
Two or more numbers in one place are separate tests of the same structure; such repeats can differ widely.

{"compound": "NCC1(c2cccc(F)c2)CCOCC1", "A": 5.485, "B": -4.04, "C": -4.348, "D": 30.3, "E": 8.365, "F": -19.92}
{"compound": "[H][C@]12CC[C@]([H])(CN(CC(=O)N(C)C)C1)N(C(=O)CCn1nccc1C)C2", "A": 13.28, "B": 7.091, "F": -56.66}
{"compound": "CC(C)COCCCNC(=O)NCC(O)c1cccc(F)c1", "stereo": "stereo not given", "A": 15.1, "B": 18.66, "C": 3.152, "D": 3.509, "E": -15.44, "F": 9.284}
{"compound": "O=C(O)C(F)(F)F.O=C(O)C(F)(F)F.[H][C@@]12CCN(Cc3ccccn3)[C@]1([H])CC[C@@H](C(=O)N(C)C)O2", "A": -0.4787, "B": 21.04, "F": -64.93}
{"compound": "O=C1[C@@H]2CCN(Cc3ccoc3)C[C@@H]2OCCN1Cc1cccnc1", "C": 3.825, "D": 15.33, "E": 1.965}
{"compound": "O=C(CC1CCc2ccccc21)N1CCC(O)(Cn2ccnc2)CC1", "stereo": "stereo not given", "A": 3.315, "B": 5.286, "C": 4.124, "D": 14.29, "E": -2.104, "F": 4.578}
{"compound": "COc1cccc(CC(C)NC(=O)NCCc2cccnc2)c1", "stereo": "stereo not given", "A": -6.145, "B": -3.285, "C": 3.797, "D": 0, "E": -11.12, "F": -10.17}
{"compound": "O=C(O)C(F)(F)F.c1csc(CN2CCCn3nnc(COCC4CC4)c3C2)n1", "A": -9.664, "B": 52.28, "F": -16.31}
{"compound": "Cc1cc(C)n(CCN2CCN(C(=O)c3cc4ccccc4o3)CC2)n1", "A": 19.18, "B": "-6.091 & 2.283", "C": 3.093, "D": 22.61, "E": -1.067, "F": 16.13}
{"compound": "c1cnnc(N2CCCC2CNCc2nnc(C3CC3)o2)c1", "stereo": "stereo not given", "A": 10.94, "B": 36.25, "C": -4.082, "D": 4.839, "E": -16.9, "F": -28.8}
{"compound": "Cn1ccnc1COc1ccc(CSc2nnnn2C)cc1", "A": -1.973, "B": 9.765, "C": 5.155, "D": 19.35, "E": -11.32, "F": -35.75}
{"compound": "CC(NCc1c(C(C)C)nn(C)c1N(C)C)C(=O)NC1CCCC1", "stereo": "stereo not given", "C": 2.646, "D": 14.71, "E": 9.741}
{"compound": "Cc1cccc(NC(=O)[C@@H]2CCCN2CC(=O)Nc2ccccc2)n1", "A": 3.023, "B": 6.742, "C": 8.333, "D": 16.96, "E": -2.499, "F": 14.64}
{"compound": "CS(=O)(=O)N1CC[C@]2(O)CCN(c3ccnc(N)n3)C[C@@H]2C1", "C": 8.642, "D": 9.804, "E": 10.43}

For reference, 2 entries once more:

{"compound": "CC(C)COCCCNC(=O)NCC(O)c1cccc(F)c1", "stereo": "stereo not given", "A": 15.1, "B": 18.66, "C": 3.152, "D": 3.509, "E": -15.44, "F": 9.284}
{"compound": "O=C(O)C(F)(F)F.c1csc(CN2CCCn3nnc(COCC4CC4)c3C2)n1", "A": -9.664, "B": 52.28, "F": -16.31}